# In the supplement of paper PMC8728848:
# The list shows a part of the results.
# B1: PX15642A-pgi-501-20-501 (Parabacteroides gingivalis) (protein)
# chain: CELDRDPEGKDFQQPYTSFVQTKQNRDGLYALLRNTENPRMHFYQELQSDMYCTTITDGNSLAPFVNWDLGILNDHGRADEDEVSGIAGYYFVYNRLNQQANAFVNNTEAALQNQVYKNSTEIANAKSFLAEGKVLQALAIWRLMDRFSFHESVTEVNSGAKDLGVILLKEYNPGYIGPRATKAQCYDYILSRLSEAIEVLPENRESVLYVSRDYAYALRARIYLALGEYGKAAADAKMVVDKYPLIGAADASEFENIYRSDANNPEIIFRGFASATLGSFTATTLNGAAPAGKDIKYNPSAVPFQWVVDLYENEDFRKSVYIAKVVKKDKGYLVNKFLEDKAYRDVQDKPNLKVGARYFSVAEVYLILVESALQTGDTPTAEKYLKALSKARGAEVSVVNMEALQAERTRELIGEGSRLRDMVRWSIPNNHDAFETQPGLEGFANTTPLKAQAPVGFYAYTWEFPQRDRQTNPQLIKNWPI
# Columns and labels:
# Test in all cases: glycan array binding signal (z-score within array); higher = stronger binding
# Conditions in all cases: glycan notation: IUPAC condensed, linker removed
# [1] = target: Man(a1-3)[Man(a1-6)]Man(a1-6)[Man(a1-3)]Man
# Summary of the method: (§1)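 The Consortium for Functional Glycomics database supplied 3228 glycan arrays, of which those lacking an available protein sequence were dropped. The binding signal, a within-array Z-score, was averaged across arrays of the same protein sequence and across linkers. Negative scores can be read as non-binding.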
# [2] = target: Man(a1-3)[Man(a1-6)]Man(a1-6)[Man(a1-3)]Man(b1-4)GlcNAc(b1-4)GlcNAc
# Summary of the method: as §1
# [3] = target: Man(a1-3)[Man(a1-6)]Man(b1-4)GlcNAc(b1-4)GlcNAc
# Summary of the method: as §1
# [4] = target: Man(a1-3)[Man(a1-6)]Man(b1-4)GlcNAc(b1-4)[Fuc(a1-6)]GlcNAc
# Summary of the method: as §1
# Man(a1-6)Man = target: Man(a1-6)Man
# Summary of the method: as §1
# Man(b1-4)GlcNAc = target: Man(b1-4)GlcNAc
# Summary of the method: as §1
# MurNAc(b1-4)GlcNAc = target: MurNAc(b1-4)GlcNAc
# Summary of the method: as §1
# Neu5Ac(a2-3)Gal = target: Neu5Ac(a2-3)Gal
# Summary of the method: as §1
# [5] = target: Neu5Ac(a2-3)Gal(b1-3)GalNAc
# Summary of the method: as §1
# [6] = target: Neu5Ac(a2-3)Gal(b1-3)GalNAc(b1-3)Gal(a1-4)Gal(b1-4)Glc
# Summary of the method: as §1
# [7] = target: Neu5Ac(a2-3)Gal(b1-3)GalNAc(b1-4)[Neu5Ac(a2-3)]Gal(b1-4)Glc
# Summary of the method: as §1
# [8] = target: Neu5Ac(a2-3)Gal(b1-3)GalNAc(b1-4)[Neu5Ac(a2-8)Neu5Ac(a2-3)]Gal(b1-4)Glc
# Summary of the method: as §1
# [9] = target: Neu5Ac(a2-3)Gal(b1-3)GalNAc6S
# Summary of the method: as §1
# [10] = target: Neu5Ac(a2-3)Gal(b1-3)GlcNAc
# Summary of the method: as §1
# [11] = target: Neu5Ac(a2-3)Gal(b1-3)GlcNAc(b1-2)Man
# Summary of the method: as §1
# [12] = target: Neu5Ac(a2-3)Gal(b1-3)GlcNAc(b1-2)Man(a1-3)[GlcNAc(b1-4)][Neu5Ac(a2-3)Gal(b1-3)GlcNAc(b1-2)Man(a1-6)]Man(b1-4)GlcNAc(b1-4)GlcNAc
# Summary of the method: as §1
# [13] = target: Neu5Ac(a2-3)Gal(b1-3)GlcNAc(b1-2)Man(a1-3)[Neu5Ac(a2-3)Gal(b1-3)GlcNAc(b1-2)Man(a1-6)]Man(b1-4)GlcNAc(b1-4)GlcNAc
# Summary of the method: as §1
# [14] = target: Neu5Ac(a2-3)Gal(b1-3)GlcNAc(b1-3)Gal(b1-3)GlcNAc
# Summary of the method: as §1
# [15] = target: Neu5Ac(a2-3)Gal(b1-3)GlcNAc(b1-3)Gal(b1-4)GlcNAc
# Summary of the method: as §1
# [16] = target: Neu5Ac(a2-3)Gal(b1-3)GlcNAc(b1-3)GalNAc
# Summary of the method: as §1
# [17] = target: Neu5Ac(a2-3)Gal(b1-3)GlcNAc(b1-4)Gal(b1-4)Glc
# Summary of the method: as §1
# [18] = target: Neu5Ac(a2-3)Gal(b1-3)GlcNAc(b1-6)GalNAc
# Summary of the method: as §1
# [19] = target: Neu5Ac(a2-3)Gal(b1-3)GlcNAc6S
# Summary of the method: as §1
# [20] = target: Neu5Ac(a2-3)Gal(b1-3)[Fuc(a1-4)]GlcNAc
# Summary of the method: as §1
# [21] = target: Neu5Ac(a2-3)Gal(b1-3)[Fuc(a1-4)]GlcNAc(b1-3)Gal(b1-3)[Fuc(a1-4)]GlcNAc
# Summary of the method: as §1
# [22] = target: Neu5Ac(a2-3)Gal(b1-3)[Fuc(a1-4)]GlcNAc(b1-3)Gal(b1-4)[Fuc(a1-3)]GlcNAc
# Summary of the method: as §1
# [23] = target: Neu5Ac(a2-3)Gal(b1-3)[GlcNAc(b1-6)]GalNAc
# Summary of the method: as §1
# [24] = target: Neu5Ac(a2-3)Gal(b1-3)[Neu5Ac(a2-6)]GalNAc
# Summary of the method: as §1
# [25] = target: Neu5Ac(a2-3)Gal(b1-3)[Neu5Ac(a2-6)]GlcNAc(b1-3)[Fuc(a1-3)[Gal(b1-4)]GlcNAc(b1-6)]Gal(b1-4)Glc
# Summary of the method: as §1
# [26] = target: Neu5Ac(a2-3)Gal(b1-3)]Neu5Ac(a2-3)Gal(b1-4)]GlcNAc
# Summary of the method: as §1
# Neu5Ac(a2-3)Gal(b1-4)Glc = target: Neu5Ac(a2-3)Gal(b1-4)Glc
# Summary of the method: as §1
# [27] = target: Neu5Ac(a2-3)Gal(b1-4)GlcNAc
# Summary of the method: as §1
# [28] = target: Neu5Ac(a2-3)Gal(b1-4)GlcNAc(b1-2)Man
# Summary of the method: as §1
# [29] = target: Neu5Ac(a2-3)Gal(b1-4)GlcNAc(b1-2)Man(a1-3)[GlcNAc(b1-4)][Neu5Ac(a2-3)Gal(b1-4)GlcNAc(b1-2)Man(a1-6)]Man(b1-4)GlcNAc(b1-4)GlcNAc
# Summary of the method: as §1
# [30] = target: Neu5Ac(a2-3)Gal(b1-4)GlcNAc(b1-2)Man(a1-3)[Neu5Ac(a2-3)Gal(b1-4)GlcNAc(b1-2)Man(a1-6)]Man(b1-4)GlcNAc(b1-4)GlcNAc
# Summary of the method: as §1
# [31] = target: Neu5Ac(a2-3)Gal(b1-4)GlcNAc(b1-2)Man(a1-3)[Neu5Ac(a2-3)Gal(b1-4)GlcNAc(b1-2)Man(a1-6)]Man(b1-4)GlcNAc(b1-4)[Fuc(a1-6)]GlcNAc
# Summary of the method: as §1
# [32] = target: Neu5Ac(a2-3)Gal(b1-4)GlcNAc(b1-2)Man(a1-3)[Neu5Ac(a2-6)Gal(b1-4)GlcNAc(b1-2)Man(a1-6)]Man(b1-4)GlcNAc(b1-4)GlcNAc
# Summary of the method: as §1
# [33] = target: Neu5Ac(a2-3)Gal(b1-4)GlcNAc(b1-2)[Neu5Ac(a2-3)Gal(b1-4)GlcNAc(b1-4)]Man(a1-3)[GlcNAc(b1-4)][Neu5Ac(a2-3)Gal(b1-4)GlcNAc(b1-2)[Neu5Ac(a2-3)Gal(b1-4)GlcNAc(b1-6)]Man(a1-6)]Man(b1-4)GlcNAc(b1-4)GlcNAc
# Summary of the method: as §1
binder,measurement,setting,value
B1,glycan array binding signal (z-score),[1],-0.551
same,glycan array binding signal (z-score),[2],0.905
same,glycan array binding signal (z-score),[3],-0.744
same,glycan array binding signal (z-score),[4],-0.658
same,glycan array binding signal (z-score),Man(a1-6)Man,-0.524
same,glycan array binding signal (z-score),Man(b1-4)GlcNAc,0.033
same,glycan array binding signal (z-score),MurNAc(b1-4)GlcNAc,0.163
same,glycan array binding signal (z-score),Neu5Ac(a2-3)Gal,-0.538
same,glycan array binding signal (z-score),[5],-0.284
same,glycan array binding signal (z-score),[6],-1.25
same,glycan array binding signal (z-score),[7],0.066
same,glycan array binding signal (z-score),[8],0.024
same,glycan array binding signal (z-score),[9],-0.605
same,glycan array binding signal (z-score),[10],-0.28
same,glycan array binding signal (z-score),[11],0.582
same,glycan array binding signal (z-score),[12],-0.206
same,glycan array binding signal (z-score),[13],0.178
same,glycan array binding signal (z-score),[14],-0.307
same,glycan array binding signal (z-score),[15],0.998
same,glycan array binding signal (z-score),[16],-0.089
same,glycan array binding signal (z-score),[17],-0.514
same,glycan array binding signal (z-score),[18],-0.686
same,glycan array binding signal (z-score),[19],0.344
same,glycan array binding signal (z-score),[20],0.949
same,glycan array binding signal (z-score),[21],0.472
same,glycan array binding signal (z-score),[22],-0.172
same,glycan array binding signal (z-score),[23],0.209
same,glycan array binding signal (z-score),[24],0.267
same,glycan array binding signal (z-score),[25],-0.808
same,glycan array binding signal (z-score),[26],-0.65
same,glycan array binding signal (z-score),Neu5Ac(a2-3)Gal(b1-4)Glc,0.045
same,glycan array binding signal (z-score),[27],-0.672
same,glycan array binding signal (z-score),[28],0.139
same,glycan array binding signal (z-score),[29],-0.277
same,glycan array binding signal (z-score),[30],-0.407
same,glycan array binding signal (z-score),[31],-0.756
same,glycan array binding signal (z-score),[32],-0.47
same,glycan array binding signal (z-score),[33],-0.045

# A second format for part of the listing above.
binder	measurement	setting	value
B1	glycan array binding signal (z-score)	[7]	0.066
same	glycan array binding signal (z-score)	[8]	0.024
